{"sequences": {"note": "Amino acid sequences for entries named in this document (tags omitted). A change or cut given only in a name is not applied to a line headed by its entry.", "UniProt O35368": "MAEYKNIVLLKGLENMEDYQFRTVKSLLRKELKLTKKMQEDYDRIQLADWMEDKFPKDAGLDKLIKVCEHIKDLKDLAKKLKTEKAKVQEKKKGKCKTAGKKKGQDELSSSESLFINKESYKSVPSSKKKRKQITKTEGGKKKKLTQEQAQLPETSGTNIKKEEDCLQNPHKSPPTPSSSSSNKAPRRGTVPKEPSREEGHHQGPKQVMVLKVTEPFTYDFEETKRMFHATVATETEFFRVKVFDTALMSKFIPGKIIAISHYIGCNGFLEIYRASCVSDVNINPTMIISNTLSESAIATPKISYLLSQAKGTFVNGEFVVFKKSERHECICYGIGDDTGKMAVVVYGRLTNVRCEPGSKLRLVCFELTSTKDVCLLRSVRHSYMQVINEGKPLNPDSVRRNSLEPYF", "UniProt D3YWE6, whole entry": "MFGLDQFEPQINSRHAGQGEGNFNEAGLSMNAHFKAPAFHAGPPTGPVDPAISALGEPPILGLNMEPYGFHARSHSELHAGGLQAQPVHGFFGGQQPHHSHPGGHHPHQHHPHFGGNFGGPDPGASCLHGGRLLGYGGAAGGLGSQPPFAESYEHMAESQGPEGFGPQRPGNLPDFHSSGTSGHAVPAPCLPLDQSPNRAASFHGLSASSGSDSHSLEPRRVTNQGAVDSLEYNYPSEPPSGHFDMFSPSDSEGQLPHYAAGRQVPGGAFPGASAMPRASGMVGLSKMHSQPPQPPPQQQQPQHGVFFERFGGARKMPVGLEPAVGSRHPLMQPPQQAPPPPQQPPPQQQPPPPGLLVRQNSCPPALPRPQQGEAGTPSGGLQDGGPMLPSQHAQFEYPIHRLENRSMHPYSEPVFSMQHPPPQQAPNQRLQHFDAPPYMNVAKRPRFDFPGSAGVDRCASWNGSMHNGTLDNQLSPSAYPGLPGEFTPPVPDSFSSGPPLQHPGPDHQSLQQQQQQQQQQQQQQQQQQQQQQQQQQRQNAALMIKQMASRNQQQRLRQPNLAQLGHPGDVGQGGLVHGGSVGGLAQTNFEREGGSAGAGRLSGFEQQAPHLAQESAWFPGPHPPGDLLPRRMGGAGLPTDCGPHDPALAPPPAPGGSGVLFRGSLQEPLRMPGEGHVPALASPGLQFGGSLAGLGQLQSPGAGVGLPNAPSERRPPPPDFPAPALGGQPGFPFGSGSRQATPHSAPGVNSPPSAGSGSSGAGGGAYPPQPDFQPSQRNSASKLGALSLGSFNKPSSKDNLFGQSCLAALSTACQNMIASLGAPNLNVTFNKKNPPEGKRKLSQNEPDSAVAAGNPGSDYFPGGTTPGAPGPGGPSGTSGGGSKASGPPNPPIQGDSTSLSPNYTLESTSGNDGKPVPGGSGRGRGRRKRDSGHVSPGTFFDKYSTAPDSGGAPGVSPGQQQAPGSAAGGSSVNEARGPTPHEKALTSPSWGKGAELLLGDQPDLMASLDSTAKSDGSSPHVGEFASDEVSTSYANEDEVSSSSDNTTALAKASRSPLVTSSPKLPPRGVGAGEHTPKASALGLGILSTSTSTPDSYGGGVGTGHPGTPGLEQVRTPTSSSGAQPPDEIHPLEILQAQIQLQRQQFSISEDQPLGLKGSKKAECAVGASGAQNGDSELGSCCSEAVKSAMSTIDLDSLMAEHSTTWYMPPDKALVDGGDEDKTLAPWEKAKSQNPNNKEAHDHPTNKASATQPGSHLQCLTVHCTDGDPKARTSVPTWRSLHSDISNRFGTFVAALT", "UniProt O08709": "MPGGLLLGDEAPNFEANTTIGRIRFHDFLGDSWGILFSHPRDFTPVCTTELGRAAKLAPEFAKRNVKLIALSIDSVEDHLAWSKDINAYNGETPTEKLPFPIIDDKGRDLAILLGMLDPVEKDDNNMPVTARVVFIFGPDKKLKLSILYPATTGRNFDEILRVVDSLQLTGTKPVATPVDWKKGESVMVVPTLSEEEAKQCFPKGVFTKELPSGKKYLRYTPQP", "UniProt E9Q5C9": "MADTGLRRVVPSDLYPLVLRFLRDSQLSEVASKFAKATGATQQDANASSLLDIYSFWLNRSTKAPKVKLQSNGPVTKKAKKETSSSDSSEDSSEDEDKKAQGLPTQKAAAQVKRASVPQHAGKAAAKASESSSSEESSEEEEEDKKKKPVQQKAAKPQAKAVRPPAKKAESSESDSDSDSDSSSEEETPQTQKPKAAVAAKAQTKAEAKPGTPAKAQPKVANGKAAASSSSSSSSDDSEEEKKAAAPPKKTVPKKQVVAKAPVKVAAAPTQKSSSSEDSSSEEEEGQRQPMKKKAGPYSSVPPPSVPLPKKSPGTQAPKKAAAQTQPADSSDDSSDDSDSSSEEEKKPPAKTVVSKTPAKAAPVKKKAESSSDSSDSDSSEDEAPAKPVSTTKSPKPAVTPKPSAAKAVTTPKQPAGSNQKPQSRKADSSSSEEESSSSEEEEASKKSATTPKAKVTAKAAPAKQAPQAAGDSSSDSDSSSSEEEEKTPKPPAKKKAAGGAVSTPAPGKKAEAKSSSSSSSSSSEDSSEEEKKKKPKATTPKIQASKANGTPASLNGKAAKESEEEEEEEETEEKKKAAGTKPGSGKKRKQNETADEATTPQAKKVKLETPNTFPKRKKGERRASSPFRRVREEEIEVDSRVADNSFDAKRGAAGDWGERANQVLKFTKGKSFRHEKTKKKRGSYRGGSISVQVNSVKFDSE", "UniProt O08705": "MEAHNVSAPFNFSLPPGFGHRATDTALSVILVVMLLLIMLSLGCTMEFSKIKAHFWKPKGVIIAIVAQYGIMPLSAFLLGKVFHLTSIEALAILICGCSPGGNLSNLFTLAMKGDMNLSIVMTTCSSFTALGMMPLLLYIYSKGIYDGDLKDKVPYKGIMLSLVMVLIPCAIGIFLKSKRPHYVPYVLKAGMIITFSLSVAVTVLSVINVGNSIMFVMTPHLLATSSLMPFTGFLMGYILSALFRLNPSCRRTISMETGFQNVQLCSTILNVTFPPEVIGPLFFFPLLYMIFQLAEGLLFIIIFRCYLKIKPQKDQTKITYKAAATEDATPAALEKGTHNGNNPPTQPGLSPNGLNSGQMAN", "UniProt B9EJ86": "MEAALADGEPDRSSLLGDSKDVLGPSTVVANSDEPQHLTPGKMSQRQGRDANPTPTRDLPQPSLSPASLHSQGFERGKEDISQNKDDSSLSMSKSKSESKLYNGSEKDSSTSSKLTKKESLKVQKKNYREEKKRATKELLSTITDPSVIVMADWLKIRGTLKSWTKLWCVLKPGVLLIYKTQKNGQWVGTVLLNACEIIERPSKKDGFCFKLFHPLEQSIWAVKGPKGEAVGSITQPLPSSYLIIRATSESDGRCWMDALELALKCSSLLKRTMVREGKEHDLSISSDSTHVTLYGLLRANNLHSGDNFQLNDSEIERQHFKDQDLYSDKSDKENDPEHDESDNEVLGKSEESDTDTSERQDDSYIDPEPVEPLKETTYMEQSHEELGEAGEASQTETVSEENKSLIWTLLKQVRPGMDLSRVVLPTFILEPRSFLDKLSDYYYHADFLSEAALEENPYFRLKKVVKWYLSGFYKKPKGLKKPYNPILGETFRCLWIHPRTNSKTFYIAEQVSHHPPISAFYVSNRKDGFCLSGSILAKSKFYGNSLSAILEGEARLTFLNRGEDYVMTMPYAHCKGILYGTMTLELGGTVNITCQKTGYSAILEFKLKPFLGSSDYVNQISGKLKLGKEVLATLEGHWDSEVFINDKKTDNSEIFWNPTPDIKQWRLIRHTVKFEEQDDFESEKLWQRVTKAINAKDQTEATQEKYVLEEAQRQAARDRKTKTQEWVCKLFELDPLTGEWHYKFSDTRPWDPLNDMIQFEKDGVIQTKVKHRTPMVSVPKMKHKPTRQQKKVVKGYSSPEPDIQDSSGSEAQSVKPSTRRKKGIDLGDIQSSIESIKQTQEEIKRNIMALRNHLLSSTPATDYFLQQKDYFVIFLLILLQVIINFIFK", "UniProt O08863, whole entry": "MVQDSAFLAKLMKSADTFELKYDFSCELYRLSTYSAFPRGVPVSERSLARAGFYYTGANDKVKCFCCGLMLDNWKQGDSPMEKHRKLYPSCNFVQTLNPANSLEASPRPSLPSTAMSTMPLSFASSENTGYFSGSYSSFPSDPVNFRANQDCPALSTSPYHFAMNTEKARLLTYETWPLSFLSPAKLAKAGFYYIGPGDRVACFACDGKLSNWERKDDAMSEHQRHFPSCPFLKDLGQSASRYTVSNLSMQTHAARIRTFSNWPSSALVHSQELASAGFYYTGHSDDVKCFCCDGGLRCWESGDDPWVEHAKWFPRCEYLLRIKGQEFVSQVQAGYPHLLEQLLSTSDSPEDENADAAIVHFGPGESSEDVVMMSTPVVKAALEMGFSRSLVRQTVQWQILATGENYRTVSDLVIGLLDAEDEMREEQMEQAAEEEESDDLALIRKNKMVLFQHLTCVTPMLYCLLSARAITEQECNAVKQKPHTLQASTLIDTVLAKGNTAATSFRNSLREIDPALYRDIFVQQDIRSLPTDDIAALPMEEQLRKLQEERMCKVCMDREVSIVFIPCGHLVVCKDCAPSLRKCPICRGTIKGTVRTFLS", "UniProt O08992": "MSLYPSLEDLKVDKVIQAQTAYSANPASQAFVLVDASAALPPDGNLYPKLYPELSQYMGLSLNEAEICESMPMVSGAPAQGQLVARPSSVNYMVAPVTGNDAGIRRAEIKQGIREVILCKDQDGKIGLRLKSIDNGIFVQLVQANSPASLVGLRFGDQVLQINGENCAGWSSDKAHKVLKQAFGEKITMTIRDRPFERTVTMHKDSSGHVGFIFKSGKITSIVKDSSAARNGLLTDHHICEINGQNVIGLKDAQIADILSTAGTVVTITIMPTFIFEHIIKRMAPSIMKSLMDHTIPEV", "UniProt E9Q8D0": "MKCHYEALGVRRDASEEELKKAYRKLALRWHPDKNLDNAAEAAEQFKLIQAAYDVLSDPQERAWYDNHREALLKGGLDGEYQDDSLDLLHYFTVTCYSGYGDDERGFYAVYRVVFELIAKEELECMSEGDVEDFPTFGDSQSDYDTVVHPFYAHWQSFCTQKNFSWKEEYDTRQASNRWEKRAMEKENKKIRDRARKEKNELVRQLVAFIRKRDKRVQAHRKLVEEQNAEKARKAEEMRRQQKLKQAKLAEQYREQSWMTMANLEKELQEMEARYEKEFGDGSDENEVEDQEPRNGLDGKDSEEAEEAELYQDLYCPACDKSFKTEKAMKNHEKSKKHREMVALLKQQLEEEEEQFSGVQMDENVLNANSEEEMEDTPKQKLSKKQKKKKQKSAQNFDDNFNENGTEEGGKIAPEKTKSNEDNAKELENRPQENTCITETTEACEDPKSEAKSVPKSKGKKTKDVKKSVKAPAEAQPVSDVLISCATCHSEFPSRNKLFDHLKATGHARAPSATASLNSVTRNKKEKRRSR", "UniProt E9Q942": "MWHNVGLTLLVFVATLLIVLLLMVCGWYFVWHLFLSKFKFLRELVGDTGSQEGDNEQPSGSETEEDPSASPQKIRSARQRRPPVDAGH", "UniProt D3Z7P3": "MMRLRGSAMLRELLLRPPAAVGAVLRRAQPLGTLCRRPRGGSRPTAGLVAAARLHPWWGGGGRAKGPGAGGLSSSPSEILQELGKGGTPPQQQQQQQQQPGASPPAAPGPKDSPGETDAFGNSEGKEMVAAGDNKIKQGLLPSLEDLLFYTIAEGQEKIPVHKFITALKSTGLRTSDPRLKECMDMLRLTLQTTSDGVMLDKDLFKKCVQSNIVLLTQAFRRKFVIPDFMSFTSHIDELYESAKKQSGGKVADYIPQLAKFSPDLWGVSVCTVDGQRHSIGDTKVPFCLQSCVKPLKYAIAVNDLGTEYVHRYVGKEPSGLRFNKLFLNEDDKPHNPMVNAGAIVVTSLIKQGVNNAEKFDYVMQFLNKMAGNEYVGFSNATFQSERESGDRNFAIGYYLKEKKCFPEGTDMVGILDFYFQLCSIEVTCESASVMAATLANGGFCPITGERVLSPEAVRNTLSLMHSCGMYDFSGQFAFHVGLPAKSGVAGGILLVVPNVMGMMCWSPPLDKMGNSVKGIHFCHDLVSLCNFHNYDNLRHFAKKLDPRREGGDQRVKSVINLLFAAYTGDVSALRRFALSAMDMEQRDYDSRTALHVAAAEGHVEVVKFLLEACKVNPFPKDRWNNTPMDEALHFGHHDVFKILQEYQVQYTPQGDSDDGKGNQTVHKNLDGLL", "UniProt E9Q6W4": "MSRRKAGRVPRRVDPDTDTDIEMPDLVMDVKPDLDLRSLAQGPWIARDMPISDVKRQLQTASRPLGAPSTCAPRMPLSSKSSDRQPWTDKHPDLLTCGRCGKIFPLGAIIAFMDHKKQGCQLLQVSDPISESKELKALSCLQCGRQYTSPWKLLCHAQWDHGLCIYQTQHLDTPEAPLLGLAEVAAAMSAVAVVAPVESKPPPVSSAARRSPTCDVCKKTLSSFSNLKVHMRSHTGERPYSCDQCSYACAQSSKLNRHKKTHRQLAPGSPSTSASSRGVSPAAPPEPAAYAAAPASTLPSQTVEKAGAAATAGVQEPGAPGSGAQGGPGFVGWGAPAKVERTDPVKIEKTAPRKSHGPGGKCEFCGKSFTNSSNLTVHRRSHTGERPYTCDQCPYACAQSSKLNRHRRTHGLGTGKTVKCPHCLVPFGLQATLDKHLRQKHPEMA"}, "source": "the supplement of paper PMC12819154", "about": "“High-throughput peptide-centric local stability assay extends protein–ligand identification to membrane proteins, tissues and bacteria” (Nature Structural & Molecular Biology, 2025)", "note": "The list shows a part of the results. Small differences around the control level are noise."}
{"compound": "CN[C@@H]1C[C@H]2O[C@@](C)([C@@H]1OC)n1c3ccccc3c3c4c(c5c6ccccc6n2c5c31)C(=O)NC4 [staurosporine]", "experiment": "log2 fold change of tryptic peptide abundance, ligand vs vehicle (limited proteolysis) (log2 ratio); higher = more trypsin-susceptible (destabilized)", "conditions": "ligand concentration: 20 uM; sample: mouse liver crude lysate; replicate design: treated separately"}
{"target": "UniProt O35368 (peptide sequence: KMQEDYDR, peptide start residue: 37)", "log2 fold change": -0.261}
{"target": "UniProt G5E829 (peptide sequence: IDESSLTGESDHVKK, peptide start residue: 238)", "log2 fold change": -0.296}
{"target": "UniProt D3YWE6 (peptide sequence: KMPVGLEPAVGSR, peptide start residue: 316)", "log2 fold change": 0.409}
{"target": "UniProt E9PYI1 (peptide sequence: IHTGEKPYK, peptide start residue: 104)", "log2 fold change": 0.143}
{"target": "UniProt O08709 (peptide sequence: KGESVMVVPTLSEEEAKQCFPK, peptide start residue: 183)", "log2 fold change": -0.173}
{"target": "UniProt O09053 (peptide sequence: VICGPTNTETR, peptide start residue: 292)", "log2 fold change": -0.456}
{"target": "UniProt B2RXC1 (peptide sequence: FIPTSIFVKPQGR, peptide start residue: 1111)", "log2 fold change": -0.0792}
{"target": "UniProt O08715 (peptide sequence: DASFPYEAVER, peptide start residue: 149)", "log2 fold change": -0.159}
{"target": "UniProt O08583 (peptide sequence: PAPYSRPK, peptide start residue: 73)", "log2 fold change": -0.691}
{"target": "UniProt O35295 (peptide sequence: RFYLDVK, peptide start residue: 57)", "log2 fold change": 0.137}
{"target": "UniProt E9Q7G0 (peptide sequence: TDAPGPELQALR, peptide start residue: 1111)", "log2 fold change": 0.181}
{"target": "UniProt D3YXJ0 (peptide sequence: IVNSDEHAVVISSAK, peptide start residue: 496)", "log2 fold change": 0.327}
{"target": "UniProt E9Q5C9 (peptide sequence: KAGPYSSVPPPSVPLPK, peptide start residue: 294)", "log2 fold change": -0.284}
{"target": "UniProt E9PXF8 (peptide sequence: SFEGTLYKR, peptide start residue: 1768)", "log2 fold change": 0.601}
{"target": "UniProt O08705 (peptide sequence: AAATEDATPAALEK, peptide start residue: 323)", "log2 fold change": -0.0615}
{"target": "UniProt O08967 (peptide sequence: GIIPLENLSIR, peptide start residue: 303)", "log2 fold change": 0.0694}
{"target": "UniProt G5E8P1 (peptide sequence: LLIELLR, peptide start residue: 537)", "log2 fold change": 0.275}
{"target": "UniProt B9EJ86 (peptide sequence: CLWIHPR, peptide start residue: 494)", "log2 fold change": 0.355}
{"target": "UniProt G3X9G7 (peptide sequence: SLPGVHNVSTLSDTSK, peptide start residue: 72)", "log2 fold change": 0.243}
{"target": "UniProt O08863 (peptide sequence: AALEMGFSR, peptide start residue: 392)", "log2 fold change": -0.0856}
{"target": "UniProt D3YXK2 (peptide sequence: DGWGYGSNK, peptide start residue: 818)", "log2 fold change": -0.26}
{"target": "UniProt O35215 (peptide sequence: FFPLEAWQIGKK, peptide start residue: 100)", "log2 fold change": -0.168}
{"target": "UniProt E9PYK3 (peptide sequence: LVGDTNIHDSEPPLLGFK, peptide start residue: 1626)", "log2 fold change": -0.136}
{"target": "UniProt E9Q0S6 (peptide sequence: FYEDKIVPIGQPSQRR, peptide start residue: 320)", "log2 fold change": 0.867}
{"target": "UniProt E9QAG8 (peptide sequence: THSGEKPYECNQCGK, peptide start residue: 125)", "log2 fold change": -0.308}
{"target": "UniProt O08992 (peptide sequence: SLMDHTIPEV, peptide start residue: 290)", "log2 fold change": 0.0392}
{"target": "UniProt E9Q8D0 (peptide sequence: KLVEEQNAEK, peptide start residue: 222)", "log2 fold change": -0.324}
{"target": "UniProt E9Q942 (peptide sequence: QRRPPVDAGH, peptide start residue: 79)", "log2 fold change": -0.231}
{"target": "UniProt O08539 (peptide sequence: QHGSNTFTVK, peptide start residue: 273)", "log2 fold change": -0.182}
{"target": "UniProt D3Z7P3 (peptide sequence: EMVAAGDNK, peptide start residue: 127)", "log2 fold change": 0.13}
{"target": "UniProt E9Q6W4 (peptide sequence: SHGPGGK, peptide start residue: 355)", "log2 fold change": 0.294}
